Experimental data taken from US20230346961A1, “GLP-1 AND GIP RECEPTOR CO-AGONISTS” (Novo Nordisk A/S, priority 2020, published 2023).
At least one structure is not confirmed: it was looked up by name or label, or the drawing left a doubt. Starred links: 1 amine or outer side, 2 acyl side, 3 side chain; linkers in the order of their positions; H or OH if unused. Non-standard residues stand in square brackets, D forms with d. Residues, ends and D or L forms follow the SMILES beside them. Groups on a side chain read outwards from the residue. *: point of attachment. C20 diacid = O=C(O)CCCCCCCCCCCCCCCCCCC(=O)*; γGlu = O=C(O)[C@H](CCC(=O)[*:2])N[*:1]; εLys = N[C@@H](CCCCN[*:1])C(=O)[*:2]; Trx = NC[C@H]1CC[C@H](C(=O)O)CC1; AEEA = NCCOCCOCC(=O)O; Aib = CC(C)(N)C(=O)O

Columns and labels:
[1] = system: diet-induced obese (DIO) mice; test: Pharmacodynamic study in DIO mice: IPGTT (intraperitoneal glucose tolerance test); assay type: in vivo, C57BL/6J male mice; conditions: 14 days, glucose 2 g/kg i.p., mean ± SEM
[2] = system: diet-induced obese (DIO) mice; test: Pharmacodynamic study in DIO mice: body weight and food intake; assay type: in vivo, C57BL/6J male mice; conditions: mean ± SEM; for Absolute BW Day 0: 3.0 nmol/kg group, baseline Day 0 (10-day study); for Absolute BW Day 0 / Absolute BW Day 10 / Change in BW Day 10: n = 8; for Cumulative food intake Day 10 / Absolute BW Day 10 / Change in BW Day 10: 3.0 nmol/kg s.c. once daily, 10 days; for Cumulative food intake Day 10: n = 2
Protocol: The purpose of this example is to assess the in vivo effect of select compounds on pharmacodynamic parameters in diet-induced obese (DIO) mice. The animals were treated once daily via subcutaneous injection with a liquid formulation of the test compound to assess effects on body weight, foot intake, and glucose tolerance. For comparison, the known GLP-1R/GIPR co-agonist tirzepatide and a surrogate of the GLP-1R agonist semaglutide were used as references. The semaglutide surrogate has the same pharmacological properties of semaglutide but a slightly modified structure in which the γGlu element of the substituent has been changed from the L-isomer to the D-isomer.
C57BL/6J male mice were purchased from Jackson Laboratories at approximately 8 weeks of age. Mice were group housed and fed a high-fat, high-sugar diet from Research Diets (D12331). Mice were maintained on this diet for 12 weeks prior to initializing the pharmacology studies. Mice exceeding a measured body weight of 50 grams were considered diet-induced obese (DIO) and included in pharmacology studies. Mice were exposed to a controlled 12 h:12 h light:dark cycle at ambient room temperature (22° C.) with ab libitum access to food and water. Studies were approved by and performed according to the guidelines of the Institutional Animal Care and Use Committee of the University of Cincinnati.
Animals were dosed once daily, subcutaneously with either vehicle or test compound. All injections occurred during the middle of the light phase at a fixed volume of 2-5 microliters per gram body weight.
All compounds in the study were formulated in the following buffer: 50 mM phosphate; 70 mM sodium chloride; 0.05% Tween-80, pH 7.4. Dosing solutions were formulated in glass vials and stored at 2-8° C. Dosing solutions were brought to room temperature before dosing and returned to 2-8° C. after dosing.
DIO mice were distributed into groups (n=8 per group) such that statistical variations in the mean and standard deviations of fat mass and body weight were minimized between groups. The animals were grouped to receive treatment as follows: Vehicle, tirzepatide, semaglutide surrogate or a GLP-1/GIP receptor co-agonists as described herein, where vehicle is 50 mM phosphate, 70 mM sodium chloride; 0.05% Tween-80, pH 7.4. The test compounds were dissolved in the vehicle, to stock concentrations of 100 μM, then diluted 50-200 fold in the vehicle to achieve the desired dosing solution concentrations. Animals were dosed subcutaneously once daily in the morning for each day of treatment with dosing solution at a volume of 2-5 μL per gram of body weight as necessary to achieve the desired dose (eg 0.3 nmol/kg, 1.0 nmol/kg, or 3.0 nmol/kg).
Body weight (BW) and food intake were measured immediately prior to dosing each day. The percent change in body was calculated individually for each mouse based on initial body weight prior to the first injection.

| Structure (SMILES) | iAUC, IPGTT Day 15 ([1]; 0.3 nmol/kg s.c. once daily) [mg·min/dL] | iAUC, IPGTT Day 15 ([1]; 1.0 nmol/kg s.c. once daily) [mg·min/dL] | iAUC, IPGTT Day 15 ([1]; 3.0 nmol/kg s.c. once daily) [mg·min/dL] | Absolute BW Day 0 [2] [grams] | Cumulative food intake Day 10 [2] [grams] | Absolute BW Day 10 [2] [grams] | Change in BW Day 10 [2] [%] |
| --- | --- | --- | --- | --- | --- | --- | --- |
| CC[C@H](C)[C@H](NC(=O)[C@H](CO)NC(=O)[C@H](Cc1ccc(O)cc1)NC(=O)[C@H](CC(=O)O)NC(=O)[C@H](CO)NC(=O)[C@@H](NC(=O)[C@H](Cc1ccccc1)NC(=O)[C@@H](NC(=O)CNC(=O)[C@H](CCC(=O)O)NC(=O)C(C)(C)NC(=O)[C@@H](N)Cc1ccc(O)cc1)[C@@H](C)O)[C@@H](C)O)C(=O)N[C@@H](Cc1ccc(O)cc1)C(=O)N[C@@H](CC(C)C)C(=O)N[C@@H](CCC(=O)O)C(=O)N[C@@H](CCCCNC(=O)[C@@H](N)CCCCNC(=O)[C@@H](N)CCCCNC(=O)CC[C@H](NC(=O)[C@H]1CC[C@H](CNC(=O)CCCCCCCCCCCCCCCCCCC(=O)O)CC1)C(=O)O)C(=O)N[C@@H](CCC(N)=O)C(=O)N[C@@H](C)C(=O)N[C@@H](C)C(=O)NC(C)(C)C(=O)N[C@@H](CCC(=O)O)C(=O)N[C@@H](Cc1ccccc1)C(=O)N[C@H](C(=O)N[C@@H](CC(N)=O)C(=O)N[C@@H](Cc1c[nH]c2ccccc12)C(=O)N[C@@H](CC(C)C)C(=O)N[C@@H](CC(C)C)C(=O)N[C@@H](C)C(=O)NCC(=O)NCC(=O)N1CCC[C@H]1C(=O)N[C@@H](CO)C(=O)N[C@@H](CO)C(=O)NCC(=O)N[C@@H](C)C(=O)N1CCC[C@H]1C(=O)N1CCC[C@H]1C(=O)N1CCC[C@H]1C(=O)N[C@@H](CO)C(N)=O)C(C)C [Compound 20] (H-Y[Aib]EGTFTSDYSIYLEK([εLys-εLys-γGlu-Trx-C20 diacid])QAA[Aib]EFVNWLLAGGPSSGAPPPS-NH2; N-terminus assumed) | 15599 ± 3145 | 12117 ± 1680 | 9191 ± 2262 | – | – | – | – |
| CC[C@H](C)[C@H](NC(=O)[C@H](CO)NC(=O)[C@H](Cc1ccc(O)cc1)NC(=O)[C@H](CC(=O)O)NC(=O)[C@H](CO)NC(=O)[C@@H](NC(=O)[C@H](Cc1ccccc1)NC(=O)[C@@H](NC(=O)CNC(=O)[C@H](CCC(=O)O)NC(=O)C(C)(C)NC(=O)[C@@H](N)Cc1ccc(O)cc1)[C@@H](C)O)[C@@H](C)O)C(=O)N[C@@H](Cc1ccc(O)cc1)C(=O)N[C@@H](CC(C)C)C(=O)N[C@@H](CCC(=O)O)C(=O)N[C@@H](CCCCNC(=O)COCCOCCNC(=O)COCCOCCNC(=O)CC[C@H](NC(=O)[C@H]1CC[C@H](CNC(=O)CCCCCCCCCCCCCCCCCCC(=O)O)CC1)C(=O)O)C(=O)N[C@@H](CCC(N)=O)C(=O)N[C@@H](C)C(=O)N[C@@H](C)C(=O)NC(C)(C)C(=O)N[C@@H](CCC(=O)O)C(=O)N[C@@H](Cc1ccccc1)C(=O)N[C@H](C(=O)N[C@@H](CC(N)=O)C(=O)N[C@@H](Cc1c[nH]c2ccccc12)C(=O)N[C@@H](CC(C)C)C(=O)N[C@@H](CC(C)C)C(=O)N[C@@H](C)C(=O)NCC(=O)NCC(=O)N1CCC[C@H]1C(=O)N[C@@H](CO)C(=O)N[C@@H](CO)C(=O)NCC(=O)N[C@@H](C)C(=O)N1CCC[C@H]1C(=O)N1CCC[C@H]1C(=O)N1CCC[C@H]1C(=O)N[C@@H](CO)C(N)=O)C(C)C [Compound 21] (H-Y[Aib]EGTFTSDYSIYLEK([AEEA-AEEA-γGlu-Trx-C20 diacid])QAA[Aib]EFVNWLLAGGPSSGAPPPS-NH2; N-terminus assumed) | – | – | – | 61.9 ± 1.6 | 5.7 ± 0.5 | 43.9 ± 1.5 | −29.1 ± 1.3 |
| CC[C@H](C)[C@H](NC(=O)[C@H](CO)NC(=O)[C@H](Cc1ccc(O)cc1)NC(=O)[C@H](CC(=O)O)NC(=O)[C@H](CO)NC(=O)[C@@H](NC(=O)[C@H](Cc1ccccc1)NC(=O)[C@@H](NC(=O)CNC(=O)[C@H](CCC(=O)O)NC(=O)C(C)(C)NC(=O)[C@@H](N)Cc1ccc(O)cc1)[C@@H](C)O)[C@@H](C)O)C(=O)N[C@@H](Cc1ccc(O)cc1)C(=O)N[C@@H](CC(C)C)C(=O)N[C@@H](CCC(=O)O)C(=O)N[C@@H](CCC(=O)O)C(=O)N[C@@H](CCC(N)=O)C(=O)N[C@@H](C)C(=O)N[C@@H](C)C(=O)NC(C)(C)C(=O)N[C@@H](CCCCNC(=O)COCCOCCNC(=O)COCCOCCNC(=O)CC[C@H](NC(=O)[C@H]1CC[C@H](CNC(=O)CCCCCCCCCCCCCCCCCCC(=O)O)CC1)C(=O)O)C(=O)N[C@@H](Cc1ccccc1)C(=O)N[C@H](C(=O)N[C@@H](CC(N)=O)C(=O)N[C@@H](Cc1c[nH]c2ccccc12)C(=O)N[C@@H](CC(C)C)C(=O)N[C@@H](CC(C)C)C(=O)N[C@@H](C)C(=O)NCC(=O)NCC(=O)N1CCC[C@H]1C(=O)N[C@@H](CO)C(=O)N[C@@H](CO)C(=O)NCC(=O)N[C@@H](C)C(=O)N1CCC[C@H]1C(=O)N1CCC[C@H]1C(=O)N1CCC[C@H]1C(=O)N[C@@H](CO)C(N)=O)C(C)C [Compound 25] (H-Y[Aib]EGTFTSDYSIYLEEQAA[Aib]K([AEEA-AEEA-γGlu-Trx-C20 diacid])FVNWLLAGGPSSGAPPPS-NH2; N-terminus assumed) | – | – | – | 63.0 ± 1.4 | 4.9 ± 1.8 | 44.4 ± 1.2 | −29.4 ± 1.7 |
| CC[C@H](C)[C@H](NC(=O)[C@H](CO)NC(=O)[C@H](Cc1ccc(O)cc1)NC(=O)[C@H](CC(=O)O)NC(=O)[C@H](CO)NC(=O)[C@@H](NC(=O)[C@H](Cc1ccccc1)NC(=O)[C@@H](NC(=O)CNC(=O)[C@H](CCC(=O)O)NC(=O)C(C)(C)NC(=O)[C@@H](N)Cc1ccc(O)cc1)[C@@H](C)O)[C@@H](C)O)C(=O)N[C@@H](Cc1ccc(O)cc1)C(=O)N[C@@H](CC(C)C)C(=O)N[C@@H](CCC(=O)O)C(=O)N[C@@H](CCC(=O)O)C(=O)N[C@@H](CCC(N)=O)C(=O)N[C@@H](C)C(=O)N[C@@H](C)C(=O)NC(C)(C)C(=O)N[C@@H](CCCCNC(=O)[C@@H](N)CCCCNC(=O)[C@@H](N)CCCCNC(=O)CC[C@H](NC(=O)[C@H]1CC[C@H](CNC(=O)CCCCCCCCCCCCCCCCCCC(=O)O)CC1)C(=O)O)C(=O)N[C@@H](Cc1ccccc1)C(=O)N[C@H](C(=O)N[C@@H](CC(N)=O)C(=O)N[C@@H](Cc1c[nH]c2ccccc12)C(=O)N[C@@H](CC(C)C)C(=O)N[C@@H](CC(C)C)C(=O)N[C@@H](C)C(=O)NCC(=O)NCC(=O)N1CCC[C@H]1C(=O)N[C@@H](CO)C(=O)N[C@@H](CO)C(=O)NCC(=O)N[C@@H](C)C(=O)N1CCC[C@H]1C(=O)N1CCC[C@H]1C(=O)N1CCC[C@H]1C(=O)N[C@@H](CO)C(N)=O)C(C)C [Compound 19] (H-Y[Aib]EGTFTSDYSIYLEEQAA[Aib]K([εLys-εLys-γGlu-Trx-C20 diacid])FVNWLLAGGPSSGAPPPS-NH2; N-terminus assumed) | 11041 ± 1835 | 10024 ± 1685 | 9288 ± 2363 | – | – | – | – |
